# In PubChem BioAssay AID2685 (National Center for Advancing Translational Sciences (NCATS), 2010):
# Some of the results follow. These are further read-outs of the screen, such as a control signal, another cell line or another target. No call is given for them. The list favours compounds with an active or inconclusive main result. The note in brackets gives the kind of curve behind each potency; many fits are weak.
# Assay: qHTS Assay for Lipid Storage Modulators in Drosophila S3 Cells;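 as to cell number change: cells counted by Cell Tracker Red CMTPX staining in the red channel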
# Conditions: BODIPY lipid droplet fluorescence, 18-24 h; for cell number change: measured here: cell count max response, cells fed with added oleic acid
# Outline: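 Drosophila S3 cells loaded with oleic acid (400 uM, as added) and compounds at several concentrations; lipid droplets imaged by 488-nm laser-scanning cytometry, 500–530 nm intensity and object ratio to cell channel. Percent activity normalized to 20 uM Triacsin C.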
# [1] = measured here: cell number channel AC50, cells fed with added oleic acid
# [2] = measured here: lipid fluorescence (Fed channel) AC50, cells fed with added oleic acid
SMILES,cell number change,AC50 [1],AC50 [2]
CCn1cc(CNC(=O)c2cc(Cl)ccc2OC)c(C)n1,6.19%,–,–
Cc1noc(C)c1CSc1nc2ccccc2c(=O)n1-c1ccc(Cl)cc1,128%,"8.2 µM [rising, partial curve]","6.51 µM [rising, single point]"
O=C(c1ccc(F)cc1)N1CCN(c2cc(N3CCCCC3)c(F)cc2[N+](=O)[O-])CC1,–,"2.91 µM [rising, single point]","7.31 µM [rising, partial curve, poor fit]"
CCOc1ccc(CCNC(=O)C2CCN(c3nnc(-n4cccc4)s3)CC2)cc1OCC,3.17%,–,"3.66 µM [rising, single point]"
COc1cc2cc(C[C@H](C)O)oc(=O)c2cc1OC,17.2%,–,"0.164 µM [rising, full curve, poor fit]"
CCOC(=O)c1[nH]c2ccccc2c1NC(=S)Nc1ccccc1C,16.6%,–,"0.0651 µM [rising, full curve, poor fit]"
O=C(O)c1ccc(CNCc2cccc(Cl)c2Cl)cc1,3.32%,–,"0.651 µM [falling, partial curve]"
CN(C)S(=O)(=O)c1ccc(C(=O)NCC(c2cccs2)N2CCOCC2)cc1 (configuration not stated),10.9%,–,"29.1 µM [falling, single point]"
NCC1CC2c3ccccc3C1c1ccccc12 (configuration not stated),-19.8%,–,"4.61 µM [falling, full curve, poor fit]"
Cc1onc(-c2ccccc2Cl)c1C(=O)N[C@@H]1C(=O)N2[C@@H]1SC(C)(C)[C@@H]2C(=O)O,14.6%,–,"29.1 µM [rising, single point]"
CC(/C=C/c1ccco1)=N/NC(=O)Cc1cccs1,-9.68%,–,"3.66 µM [rising, single point]"
CC(CNC(=O)CN1C(=O)COc2ccc(S(=O)(=O)N3CCCCC3)cc21)c1ccccc1 (configuration not stated),51.2%,"20.6 µM [rising, partial curve, poor fit]","29.1 µM [rising, single point]"
COc1ccc(N2CCN(c3nc4c(c(=O)[nH]c(=O)n4C)n3Cc3cccc(C)c3)CC2)cc1,-2.89%,"6.51 µM [rising, single point]","3.66 µM [rising, single point]"
Cc1ccc(-c2nnc(SCC(=O)N/N=C/c3c(C)nn(-c4ccccc4)c3C)n2-c2ccc(C)cc2)cc1,17.4%,–,"20.6 µM [rising, partial curve]"
COC(=O)c1nnn(-c2nonc2N)c1CSc1ccc(Cl)cc1,-20.6%,–,"0.291 µM [rising, full curve]"

# By substructure: the compounds so far containing an NH in an aromatic ring
SMILES,cell number change,AC50 [1],AC50 [2]
CCOC(=O)c1[nH]c2ccccc2c1NC(=S)Nc1ccccc1C,16.6%,–,"0.0651 µM [rising, full curve, poor fit]"
COc1ccc(N2CCN(c3nc4c(c(=O)[nH]c(=O)n4C)n3Cc3cccc(C)c3)CC2)cc1,-2.89%,"6.51 µM [rising, single point]","3.66 µM [rising, single point]"
